Literature values in patent US20050107350A1, “Method for the treatment or prevention of bone disorders with a cyclooxygenase-2 inhibitor alone and in combination with a bone disorder treatment agent and compositions therewith” (Pharmacia Corporation, priority 2003, published 2005).
Some of these results come from one statement about several compounds together.

Tested on: osteoporosis patients
Conditions: women with prevalent vertebral fractures; treatment for 3-4 years or longer

O=P(O)(O)C(O)(Cc1cccnc1)P(=O)(O)O [risedronate, [1-hydroxy-2-(3-pyridinyl)ethyliden]bis[phosphonic acid]]
reduction of incident fractures at all sites: up to 50%
